Measurements taken from article doi:10.1101/2020.06.06.138156 (bioRxiv, 2020).
No constants are given. Whether binding was seen depends on the method and setting. Binding seen in cells or lysates may run through a third protein. Some entries that bind do so weakly or less than the wild type. For part of these data: Tags and fused reporters may be left off the sequences shown.

How the values were obtained:
Assay in all cases: pull-down
Halo-FLAG-SETD2C (human) = target: T1, Halo-FLAG-SETD2C (human) (UniProt Q9BYW2)
T1 sequence: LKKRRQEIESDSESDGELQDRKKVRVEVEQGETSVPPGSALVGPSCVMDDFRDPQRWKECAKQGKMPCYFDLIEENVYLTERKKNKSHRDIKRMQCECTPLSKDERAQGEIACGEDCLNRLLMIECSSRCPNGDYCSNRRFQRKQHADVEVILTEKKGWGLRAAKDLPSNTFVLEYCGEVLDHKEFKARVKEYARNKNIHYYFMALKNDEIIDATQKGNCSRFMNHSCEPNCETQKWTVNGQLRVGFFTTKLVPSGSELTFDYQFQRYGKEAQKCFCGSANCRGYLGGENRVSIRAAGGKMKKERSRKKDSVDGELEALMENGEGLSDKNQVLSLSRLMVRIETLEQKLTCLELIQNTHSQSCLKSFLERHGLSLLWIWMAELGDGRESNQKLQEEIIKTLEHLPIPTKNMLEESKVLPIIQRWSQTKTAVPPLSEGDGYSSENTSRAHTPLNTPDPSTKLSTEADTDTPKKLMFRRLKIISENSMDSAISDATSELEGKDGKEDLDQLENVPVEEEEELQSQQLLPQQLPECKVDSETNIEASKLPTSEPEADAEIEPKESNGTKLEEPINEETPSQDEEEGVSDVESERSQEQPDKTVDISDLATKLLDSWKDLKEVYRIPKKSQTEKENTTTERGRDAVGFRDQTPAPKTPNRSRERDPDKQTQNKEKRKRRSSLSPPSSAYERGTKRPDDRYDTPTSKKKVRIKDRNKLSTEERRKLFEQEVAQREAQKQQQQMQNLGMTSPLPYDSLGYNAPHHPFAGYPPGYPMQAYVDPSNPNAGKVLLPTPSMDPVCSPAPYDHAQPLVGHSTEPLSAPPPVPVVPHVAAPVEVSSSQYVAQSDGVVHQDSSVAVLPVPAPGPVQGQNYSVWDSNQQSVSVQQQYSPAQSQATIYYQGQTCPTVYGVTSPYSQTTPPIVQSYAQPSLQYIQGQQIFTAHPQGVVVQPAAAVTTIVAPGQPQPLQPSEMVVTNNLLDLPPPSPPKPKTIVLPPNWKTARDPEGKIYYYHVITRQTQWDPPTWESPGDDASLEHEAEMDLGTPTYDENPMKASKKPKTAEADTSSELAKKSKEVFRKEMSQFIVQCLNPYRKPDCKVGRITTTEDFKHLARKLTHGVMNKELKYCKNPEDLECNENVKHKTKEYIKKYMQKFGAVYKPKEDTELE

[1] = target: T2, Halo-SETD2 2264-2564 (human) (UniProt Q9BYW2)
T2 sequence: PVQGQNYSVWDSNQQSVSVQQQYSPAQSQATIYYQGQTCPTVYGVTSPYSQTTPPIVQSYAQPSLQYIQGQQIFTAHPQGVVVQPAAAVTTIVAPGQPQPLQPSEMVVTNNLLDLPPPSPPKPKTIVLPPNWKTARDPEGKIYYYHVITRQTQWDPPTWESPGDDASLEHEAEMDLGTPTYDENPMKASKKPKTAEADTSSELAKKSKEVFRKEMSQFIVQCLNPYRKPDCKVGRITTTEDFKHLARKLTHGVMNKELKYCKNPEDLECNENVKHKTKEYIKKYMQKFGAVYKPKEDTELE

[2] = target: T3, Halo-SETD2C (1404-2564) (human) (UniProt Q9BYW2)
T3 sequence: T1 sequence

B1: hnRNP L (endogenous) (protein, UniProt P14866 1-589)
chain: MSRRLLPRAEKRRRRLEQRQQPDEQRRRSGAMVKMAAAGGGGGGGRYYGGGSEGGRAPKRLKTDNAGDQHGGGGGGGGGAGAAGGGGGGENYDDPHKTPASPVVHIRGLIDGVVEADLVEALQEFGPISYVVVMPKKRQALVEFEDVLGACNAVNYAADNQIYIAGHPAFVNYSTSQKISRPGDSDDSRSVNSVLLFTILNPIYSITTDVLYTICNPCGPVQRIVIFRKNGVQAMVEFDSVQSAQRAKASLNGADIYSGCCTLKIEYAKPTRLNVFKNDQDTWDYTNPNLSGQGDPGSNPNKRQRQPPLLGDHPAEYGGPHGGYHSHYHDEGYGPPPPHYEGRRMGPPVGGHRRGPSRYGPQYGHPPPPPPPPEYGPHADSPVLMVYGLDQSKMNCDRVFNVFCLYGNVEKVKFMKSKPGAAMVEMADGYAVDRAITHLNNNFMFGQKLNVCVSKQPAIMPGQSYGLEDGSCSYKDFSESRNNRFSTPEQAAKNRIQHPSNVLHFFNAPLEVTEENFFEICDELGVKRPSSVKVFSGKSERSSSGLLEWESKSDALETLGFLNHYQMKNPNGPYPYTLKLCFSTAQHAS
- binding (Halo-FLAG-SETD2C (human)): binds
- binding [1]: no binding
- binding [2]: binds
